Source: PubChem BioAssay AID504594 (Broad Institute, 2011)
“And” between values parts separate entries of the source, which are not always exact repeats. Identical values can stand only once. The campaign covered roughly 2,000 compounds. Fewer than 10 were called active.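 How the source made its calls: active means growth inhibition of at least 75% in every replicate, which also brings the mean inhibition to 75% or more; inconclusive means mean inhibition 75% or more but some replicate under 75%; inactive means the rest.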 The list shows a part of the results.

test: growth inhibition of PfHsp90-dependent yeast, primary screen, antimalarial PfHsp90 inhibitor project, S. cerevisiae, BacTiter-Glo luminescence (AID 504594);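 further: 0% = DMSO neutral control wells and 100% = 20 µM radicicol control wells; higher value means stronger growth inhibition because the sign is flipped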; settings: S. cerevisiae expressing PfHsp90, BacTiter-Glo growth, 48 h; at 9.4 µM; stronger effect = higher value

Growth inhibition, inactive:
COc1ccc(-c2cc3cc(OC)c(OC)cc3c(C)n2)cc1 4.39%
O=[N+]([O-])c1cc(/C=N/n2cnnc2)ccc1N1CCCC1 1.79%
COc1ccc2cc([C@H](C)C(=O)O)ccc2c1 -4.27%
CCN(CC)c1ccc(C2=NNC(=O)CC2C)cc1[N+](=O)[O-] (stereo not drawn) -4.84%
C[C@@H]1C[C@H](Nc2ccccc2)c2ccccc2N1C(=O)c1cccnc1 -6.79%
Cc1cc(O)c2/c(=N\N)c(-c3csc(C)n3)coc2c1 0.851%
CC1(C)S[C@@H]2[C@H](NC(=O)[C@H](N)c3ccccc3)C(=O)N2[C@H]1C(=O)O 0.582% and 0.988%
CC(=O)NCCCC(=O)NC(CCC(=O)OCc1ccccc1)C(=O)OCc1ccccc1 (stereo not drawn) 0.724%
O=c1n(CCCN2CCN(c3cccc(Cl)c3)CC2)nc2ccccn12 -4.91%
CC12CCC(C(=O)NNc3ccccc3)(C(=O)C1=O)C2(C)C (stereo not drawn) 0.791%
OC12CCCCC1C(c1ccc3c(c1)OCO3)N(Cc1cccc(F)c1)CC2 (stereo not drawn) -5.52%
CC(=O)O[C@H]1CC[C@H]2[C@@H]3CCc4cc(O)ccc4[C@H]3CC[C@]12C -2.83%
CCCCCCCC(=O)OCC(O)CO (stereo not drawn) -0.758%
Nc1ccc(N)c(C(=O)O)c1 -0.138%
CCOc1ccc2nc(S(N)(=O)=O)sc2c1 4.43%
CN1CCCN(C(c2ccccc2)c2ccc(Cl)cc2)CC1 (stereo not drawn) -0.936%
O=C(O)c1ccccc1O -8.83%
CCNCCC(CCC(C)C)c1ccc2c(c1)OCO2 (stereo not drawn) 17.1%
C/C(NC(=O)c1cccs1)=C1\C(=O)C[C@@H]2[C@H]1C2(C)C 1.59%
O=P(c1ccccc1)(c1ccccc1)c1nc(-c2ccc(Cl)cc2)oc1N1CCOCC1 -7.34%
Cc1cc(/C=N/O)c(C)n1-c1ccc(Br)cc1 -4.29%
N#C/C(=C\c1ccc(O)c(O)c1)C(=O)NCCCc1ccccc1 14.5%
COc1ccc(-c2[nH]ncc2CN(CCO)Cc2cccs2)c(F)c1 -4.42%
CCOC(=O)C1CCCN(Cc2nc(Cc3cccc(F)c3)no2)C1 (stereo not drawn) -6.92%
CCOc1ccc(C(=O)NCC2(c3ccccc3)CCOCC2)cc1 20.6%
COc1cccc(/C=C/C(=O)c2c(O)cc(C)oc2=O)c1O -2.62%
CCN1C(=O)C(CC(=O)Nc2ccc(F)cc2)N(Cc2ccc3c(c2)OCO3)C1=S (stereo not drawn) 10.5%
COc1ccccc1/C=C/C(=O)c1c2c(c(C)[nH]c1=O)CCCC2 6.58%
CN(C)CCOc1ccc(Cl)cc1C(C)(C)C -0.977%
CC(=O)c1c(C)[nH]c(C(=O)OCc2ccccc2)c1C -16%
CCc1cc(=O)oc2cc(C)c(CN3CCCC(C)C3)c(O)c12 (stereo not drawn) 16.4%
COC(=O)CCC(=O)CN -5.07%
CC1(C)NC(C(=O)O)Cc2c1[nH]c1ccccc21 (stereo not drawn) 7.2%
COc1ccc2cc(-c3nc4ccccc4n3C)c(=O)oc2c1 -7.02%
O=C(Nc1ccccc1)OCC1CCCN2CCCCC12 (stereo not drawn) -3.54%
COc1cc(C2C(C(C)=O)=C(O)C(=O)N2c2ccc(C)cc2)ccc1O (stereo not drawn) 6.76%
CC(C)=CCC/C(C)=C/CC/C(C)=N/O -12.1%
CC(C)OC(=O)C(C)(C)Oc1ccc(C(=O)c2ccc(Cl)cc2)cc1 -6.46%
COC(=O)C1[C@H]2C(=O)N(Cc3cccs3)C[C@]23C=C[C@H]1O3 (stereo partly drawn) 1.27%
CC(C)NC(=O)C1(c2ccccc2)CCOCC1 -8.01%
CC1(C)CC(=O)C(C2(O)C(=O)Nc3ccccc32)CO1 (stereo not drawn) 2.4%
O=C(CCCCC(=O)NC1CCCC1)NC1CCCC1 -14.7%
CC[C@H](C)C(=O)O[C@H]1C[C@@H](C)C=C2C=C[C@H](C)[C@H](CC[C@@H]3C[C@@H](O)CC(=O)O3)[C@H]21 -16.1%
Cc1nc(C2CC(=O)OC23CCCCC3)cs1 (stereo not drawn) 2.17%
COc1ccc(C(=O)O)cc1F -4.03%
COc1cccc(OCc2cc(C3Nc4ccccc4C(=O)N3Cc3ccco3)ccc2OC)c1 (stereo not drawn) -4.77%
Cc1ccc(C2CC(c3cccs3)=NN2C(=O)c2ccco2)o1 (stereo not drawn) 6.03%
COc1cc(CNc2ccc(C)c(C)c2)cc(OC)c1OC 13.4%
CC(=O)N[C@@H](CS)C(=O)O 3.67%
O=C(CNC(=O)OCc1ccccc1)NC1CCCCCC1 5.59%
O=C(OCC(O)C(O)COC(=O)c1ccccc1)c1ccccc1 (stereo not drawn) -1.38%
O=C(CCc1ccccc1)Nc1ccccc1C(F)(F)F -4.86%
CC(=O)c1c(C)c(C)c2n1CCn1c(C)ccc1-2 6.96%
COc1cc(CC(=O)NCCc2ccc(S(N)(=O)=O)cc2)cc(OC)c1OC -0.242%
COc1ccc(C(=O)CCN2CCc3cc(OC)c(OC)cc3C2)cc1 4.16%
Cc1cccc(OCC(=O)Nc2ccc(C(=O)NCC(C)C)cc2)c1 0.532%
CC(=O)NC(CC(C)C)C(=O)NC(Cc1ccccc1)C(N)=O (stereo not drawn) 2.06%
Cc1c(OCC(=O)NC(Cc2c[nH]c3ccc(O)cc23)C(=O)O)ccc2c3c(c(=O)oc12)CCC3 (stereo not drawn) 5.25%
Cc1ccnc(NS(=O)(=O)c2ccc(N)cc2)n1 -0.741%
NC(=O)OCC(COC(N)=O)c1ccccc1 -16.6%
CC1(C#CC[N+]2(C)CCCCC2)CCC2C(O1)c1ccccc1OC2(C)C (stereo not drawn) -9.86%
Cc1ccc(C(=O)COC(=O)c2cccc(N3C(=O)c4c(C)nc5ccccc5c4C3=O)c2)cc1C 2.21%
Cc1cc(O)c(C(C)C)cc1C1(c2cc(C(C)C)c(O)cc2C)OC(=O)c2ccccc21 -1.02%
